Among the data in publication PMC3119047 are binding values, retold here.

Experiment [1] addresses T1, AtBMI1C (yeast two-hybrid fusion) (Arabidopsis thaliana) (UniProt Q9LS86).
T1 sequence: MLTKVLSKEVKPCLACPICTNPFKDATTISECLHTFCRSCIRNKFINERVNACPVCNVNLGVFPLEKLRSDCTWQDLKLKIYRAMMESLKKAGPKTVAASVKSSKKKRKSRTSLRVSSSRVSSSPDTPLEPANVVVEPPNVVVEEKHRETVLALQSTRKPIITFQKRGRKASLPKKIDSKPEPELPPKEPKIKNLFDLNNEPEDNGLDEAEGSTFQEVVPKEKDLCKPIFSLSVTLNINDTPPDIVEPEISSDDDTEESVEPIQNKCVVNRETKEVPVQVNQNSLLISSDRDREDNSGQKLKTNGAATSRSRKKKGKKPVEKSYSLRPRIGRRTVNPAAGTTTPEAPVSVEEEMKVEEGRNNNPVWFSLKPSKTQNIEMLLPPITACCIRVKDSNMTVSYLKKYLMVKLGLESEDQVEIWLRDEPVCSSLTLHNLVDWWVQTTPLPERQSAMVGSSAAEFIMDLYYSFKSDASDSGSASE
In words: two-hybrid; pGADT7 and pGBKT7 fusions co-transformed into yeast strain AH109; growth on plates lacking Leu, Trp, His and adenine; quantitative β-galactosidase activity.

The target in experiment [2] is T2, MBP-AtBMI1C (Arabidopsis thaliana) (UniProt Q9LS86).
T2 sequence: T1 sequence
The experiment in a line: pull-down; MBP-AtBMI1C-coated beads (amylase resin) incubated with plant total protein extract for 2 h at 4°C; 50 mM Tris-HCl pH 7.6, 150 mM NaCl, 2 mM EDTA; washed three times; Western blot with anti-Myc and anti-MBP; only the target purified. Background: In western blotting, separated proteins are transferred to a membrane and probed.

These are yes or no findings as the source states them, for the method shown. For some of these results: Binding seen in cells or lysates may run through a third protein. Some results given as binding are weak or reduced against the parent protein; the word gives no strength. Tags and fused reporters may be left off the sequences shown.

B1: AtRING1B (yeast two-hybrid fusion) (protein, UniProt Q0WX00 1-460)
chain: MPSLKSFSAAEEEDDQLGRNSEAERFNPEAVEKEEDPDKMDEKDESGDEEDDVKRDQVEAEDEEALGEEEDSKERSQSSSAGELSESEYMVVDLADICKDVQCSICLGIIRKTRTVMECLHRFCRECIDKSMRLGNNECPTCRKHCASRRSLRDDPNFDALIAALFKNIDKFEEEELNFRQDDEARNKQIQASIAQVSQRQSKALVKRKSVGKGTAILSRSRRSGGGSRRRRNCRNIEQDTSEANDDDDQNKRGKDSSSDEPCERQRKKRSATQPSSSNANNNDNCAGNGTEQTHQRDSRVISPVLVWNSELIAWGRGGTRSNTRQGNNNQGAISKRNARLKRLVEYLGSLEGNSVELDIHLKLVSLDTEGLLNLHEPYLCFRPTLLVKQLREYVARHLKLKAEEVELLVSKDGDTVIGNKTSTEKMQSLQDDETVAKLKVDCISSNGYMIVVYRRKQIA
For the molecule B1, the binding entry in experiment [1] is “binds”.

B2: Myc-RING1B (protein, UniProt Q0WX00 1-460)
chain: B1 chain
As for B2, the binding entry in experiment [2] is given as “binds”.

B3: AtRING1A (yeast two-hybrid fusion) (protein, UniProt Q9FKW0 1-522)
chain: MSVKNNSFSSAEIPDVADQPRDRFNPEATQDLQEKDETKEEKEGDEEVKHDEAEEDQEVVKPNDAEEDDDGDDAEEDEEEEVEAEEDEEAEEEEEEEEEEEEEEEDSKERSPSSISGDQSEFMEIDLGEIRKDVQCPICLGIIKKTRTVMECLHRFCRECIDKSMRLGNNECPACRKHCASRRSLRDDPKFDALIAALFTNIDSYEEEELAFHEDEMARNKQIQASIAQISQRQSEALVKRRSLGKEAAVLMRSPRIASGSRRRRNSRNMEQQNASEAHEDDDNDDNNNRGRDKDSSSDERGTEVRQKKRRKRSTSRSTQHPSSSGANKNNGNCADNDTEVYRDTKGISPGLVWNPEILAWGRGGTRSNTRHGNNTSGGSSKSVRNARVNKLVEYLRSSVDGSSVELDIHVKLVSLDTKCIPDLPQPYLCCRPTLLVKQLREFVALQIHLKTEEVELLVTRRRVGEDAAIENLPAVTPASAAASKDEMLSLEDNETLSRLKIDFISSHEQHLIIAYRKKQTE
For the molecule B3, the binding result in experiment [1] was “binds”.

B4: Myc-RING1A (protein, UniProt Q9FKW0 1-522)
chain: B3 chain
As for B4, the binding entry in experiment [2] is listed as “binds”.
